Data reported in PMC7804955.
No constants are given. Whether binding was seen depends on the method and setting. In cells and extracts the contact can be indirect. Some binding calls cover weakened binding; strength is not graded here.

Amino acid sequences for entries named in this document (tags omitted).
UniProt O00425: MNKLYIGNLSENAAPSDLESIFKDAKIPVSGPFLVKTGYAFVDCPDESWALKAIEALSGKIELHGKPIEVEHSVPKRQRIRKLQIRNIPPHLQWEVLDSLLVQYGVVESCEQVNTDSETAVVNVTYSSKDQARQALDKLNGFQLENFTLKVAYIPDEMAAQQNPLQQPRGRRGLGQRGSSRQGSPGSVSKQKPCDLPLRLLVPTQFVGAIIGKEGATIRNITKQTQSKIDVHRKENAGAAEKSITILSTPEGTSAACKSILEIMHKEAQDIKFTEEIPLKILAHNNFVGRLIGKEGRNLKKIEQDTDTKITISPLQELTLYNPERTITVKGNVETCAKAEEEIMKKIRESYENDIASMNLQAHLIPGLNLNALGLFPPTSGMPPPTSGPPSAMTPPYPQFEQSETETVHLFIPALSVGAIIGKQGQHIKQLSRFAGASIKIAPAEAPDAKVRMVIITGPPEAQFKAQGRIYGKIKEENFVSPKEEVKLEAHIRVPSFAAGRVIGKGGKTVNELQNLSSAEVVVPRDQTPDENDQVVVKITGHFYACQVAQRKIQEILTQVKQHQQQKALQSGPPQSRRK
UniProt Q9NZI8: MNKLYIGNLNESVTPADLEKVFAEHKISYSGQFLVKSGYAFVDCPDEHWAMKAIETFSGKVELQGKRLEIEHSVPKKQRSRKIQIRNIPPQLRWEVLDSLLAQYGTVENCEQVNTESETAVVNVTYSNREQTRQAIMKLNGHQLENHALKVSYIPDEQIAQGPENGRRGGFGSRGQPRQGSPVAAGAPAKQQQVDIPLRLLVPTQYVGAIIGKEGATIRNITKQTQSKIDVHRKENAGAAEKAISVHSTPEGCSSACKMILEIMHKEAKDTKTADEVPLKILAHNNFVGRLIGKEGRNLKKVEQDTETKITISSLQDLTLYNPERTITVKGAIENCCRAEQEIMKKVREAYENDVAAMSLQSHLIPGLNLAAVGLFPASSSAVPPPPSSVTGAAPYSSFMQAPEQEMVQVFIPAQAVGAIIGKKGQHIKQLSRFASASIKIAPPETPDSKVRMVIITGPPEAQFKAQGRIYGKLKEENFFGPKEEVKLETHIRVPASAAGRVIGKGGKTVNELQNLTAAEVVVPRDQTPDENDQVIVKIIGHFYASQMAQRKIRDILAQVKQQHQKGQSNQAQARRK
UniProt Q9Y6M1: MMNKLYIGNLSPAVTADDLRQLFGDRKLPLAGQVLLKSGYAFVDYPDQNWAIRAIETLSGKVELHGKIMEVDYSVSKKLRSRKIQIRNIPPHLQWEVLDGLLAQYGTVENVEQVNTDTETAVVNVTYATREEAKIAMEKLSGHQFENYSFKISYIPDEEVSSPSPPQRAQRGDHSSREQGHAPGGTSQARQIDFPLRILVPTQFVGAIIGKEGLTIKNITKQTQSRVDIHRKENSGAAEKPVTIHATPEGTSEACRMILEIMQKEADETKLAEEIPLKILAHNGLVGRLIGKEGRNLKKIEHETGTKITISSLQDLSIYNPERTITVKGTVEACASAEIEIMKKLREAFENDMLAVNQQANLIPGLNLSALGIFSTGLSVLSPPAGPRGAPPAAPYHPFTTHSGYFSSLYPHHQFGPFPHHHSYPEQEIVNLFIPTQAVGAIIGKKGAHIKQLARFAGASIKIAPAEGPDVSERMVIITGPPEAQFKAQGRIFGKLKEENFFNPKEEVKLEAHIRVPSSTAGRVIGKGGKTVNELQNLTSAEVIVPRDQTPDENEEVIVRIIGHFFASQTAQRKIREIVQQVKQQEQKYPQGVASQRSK
UniProt Q14258: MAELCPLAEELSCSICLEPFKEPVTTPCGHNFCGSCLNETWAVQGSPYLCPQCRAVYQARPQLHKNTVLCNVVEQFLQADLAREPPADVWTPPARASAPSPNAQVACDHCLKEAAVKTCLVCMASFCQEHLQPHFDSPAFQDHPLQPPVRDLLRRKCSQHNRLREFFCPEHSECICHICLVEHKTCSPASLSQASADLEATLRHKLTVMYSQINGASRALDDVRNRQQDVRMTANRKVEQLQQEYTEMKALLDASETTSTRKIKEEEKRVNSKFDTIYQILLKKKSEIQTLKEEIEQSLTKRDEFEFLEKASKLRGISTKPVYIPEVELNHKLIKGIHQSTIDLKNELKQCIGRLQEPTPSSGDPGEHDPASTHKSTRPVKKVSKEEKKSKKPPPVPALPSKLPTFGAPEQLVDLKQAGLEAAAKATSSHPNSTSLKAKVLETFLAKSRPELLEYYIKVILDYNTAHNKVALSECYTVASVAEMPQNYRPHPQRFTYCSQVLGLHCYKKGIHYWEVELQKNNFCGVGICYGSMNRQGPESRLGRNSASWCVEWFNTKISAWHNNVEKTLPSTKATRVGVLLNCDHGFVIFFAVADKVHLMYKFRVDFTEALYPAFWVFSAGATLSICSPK

Tests used:
Experiment in all cases: co-IP; A549 cell lysate in co-IP buffer with proteinase, phosphatase and RNase inhibitors; beads preincubated with antibodies, 4 °C overnight; cells also with vector, circNDUFB2 or circNDUFB2-MUT overexpression; RNase R (100 U/ml) treatment
[1] = biological target: Insulin-like growth factor 2 mRNA-binding protein 3 (human) (UniProt O00425)
[2] = biological target: Insulin-like growth factor 2 mRNA-binding protein 1 (human) (UniProt Q9NZI8)
[3] = biological target: Insulin-like growth factor 2 mRNA-binding protein 2 (human) (UniProt Q9Y6M1)

Measured: binding

TRIM25 (from UniProt Q14258 1-630) (enzyme)
binds: [1] | [2] | [3]
